From the supplement of paper PMC12067093, “Discovery and optimisation of a covalent ligand for TRIM25 and its application to targeted protein ubiquitination” (Chemical Science, 2025)
This is one part of the list.

Amino acid sequences for entries named in this document (tags omitted). A change or cut given only in a name is not applied to a line headed by its entry.
UniProt P42285: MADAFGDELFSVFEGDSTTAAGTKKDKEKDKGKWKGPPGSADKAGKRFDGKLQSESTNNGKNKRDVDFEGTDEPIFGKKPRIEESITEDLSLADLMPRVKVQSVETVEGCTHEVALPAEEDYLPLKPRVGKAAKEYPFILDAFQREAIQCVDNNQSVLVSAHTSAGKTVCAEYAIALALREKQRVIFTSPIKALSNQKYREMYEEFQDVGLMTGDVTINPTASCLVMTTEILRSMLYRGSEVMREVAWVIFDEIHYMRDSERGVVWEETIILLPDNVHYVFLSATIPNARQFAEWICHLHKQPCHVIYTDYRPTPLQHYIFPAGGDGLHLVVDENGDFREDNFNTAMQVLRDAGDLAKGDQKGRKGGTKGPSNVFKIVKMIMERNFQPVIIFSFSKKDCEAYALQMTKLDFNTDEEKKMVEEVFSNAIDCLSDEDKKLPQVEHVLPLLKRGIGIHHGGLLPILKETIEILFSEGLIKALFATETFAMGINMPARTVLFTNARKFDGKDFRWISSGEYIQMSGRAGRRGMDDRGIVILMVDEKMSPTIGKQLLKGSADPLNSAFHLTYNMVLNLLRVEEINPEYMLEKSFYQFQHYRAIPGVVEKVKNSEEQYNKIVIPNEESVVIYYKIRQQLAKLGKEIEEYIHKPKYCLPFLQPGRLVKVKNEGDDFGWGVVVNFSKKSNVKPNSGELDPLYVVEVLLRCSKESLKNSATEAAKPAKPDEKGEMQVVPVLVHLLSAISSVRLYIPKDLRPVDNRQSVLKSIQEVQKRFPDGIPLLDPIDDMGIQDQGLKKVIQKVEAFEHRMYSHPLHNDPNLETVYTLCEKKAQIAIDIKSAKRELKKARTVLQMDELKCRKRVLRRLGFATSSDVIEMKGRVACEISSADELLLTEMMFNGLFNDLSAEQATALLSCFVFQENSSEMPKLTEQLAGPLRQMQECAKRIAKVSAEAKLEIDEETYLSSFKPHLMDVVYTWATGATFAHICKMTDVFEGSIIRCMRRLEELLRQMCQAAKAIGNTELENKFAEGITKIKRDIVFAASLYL
UniProt O75592: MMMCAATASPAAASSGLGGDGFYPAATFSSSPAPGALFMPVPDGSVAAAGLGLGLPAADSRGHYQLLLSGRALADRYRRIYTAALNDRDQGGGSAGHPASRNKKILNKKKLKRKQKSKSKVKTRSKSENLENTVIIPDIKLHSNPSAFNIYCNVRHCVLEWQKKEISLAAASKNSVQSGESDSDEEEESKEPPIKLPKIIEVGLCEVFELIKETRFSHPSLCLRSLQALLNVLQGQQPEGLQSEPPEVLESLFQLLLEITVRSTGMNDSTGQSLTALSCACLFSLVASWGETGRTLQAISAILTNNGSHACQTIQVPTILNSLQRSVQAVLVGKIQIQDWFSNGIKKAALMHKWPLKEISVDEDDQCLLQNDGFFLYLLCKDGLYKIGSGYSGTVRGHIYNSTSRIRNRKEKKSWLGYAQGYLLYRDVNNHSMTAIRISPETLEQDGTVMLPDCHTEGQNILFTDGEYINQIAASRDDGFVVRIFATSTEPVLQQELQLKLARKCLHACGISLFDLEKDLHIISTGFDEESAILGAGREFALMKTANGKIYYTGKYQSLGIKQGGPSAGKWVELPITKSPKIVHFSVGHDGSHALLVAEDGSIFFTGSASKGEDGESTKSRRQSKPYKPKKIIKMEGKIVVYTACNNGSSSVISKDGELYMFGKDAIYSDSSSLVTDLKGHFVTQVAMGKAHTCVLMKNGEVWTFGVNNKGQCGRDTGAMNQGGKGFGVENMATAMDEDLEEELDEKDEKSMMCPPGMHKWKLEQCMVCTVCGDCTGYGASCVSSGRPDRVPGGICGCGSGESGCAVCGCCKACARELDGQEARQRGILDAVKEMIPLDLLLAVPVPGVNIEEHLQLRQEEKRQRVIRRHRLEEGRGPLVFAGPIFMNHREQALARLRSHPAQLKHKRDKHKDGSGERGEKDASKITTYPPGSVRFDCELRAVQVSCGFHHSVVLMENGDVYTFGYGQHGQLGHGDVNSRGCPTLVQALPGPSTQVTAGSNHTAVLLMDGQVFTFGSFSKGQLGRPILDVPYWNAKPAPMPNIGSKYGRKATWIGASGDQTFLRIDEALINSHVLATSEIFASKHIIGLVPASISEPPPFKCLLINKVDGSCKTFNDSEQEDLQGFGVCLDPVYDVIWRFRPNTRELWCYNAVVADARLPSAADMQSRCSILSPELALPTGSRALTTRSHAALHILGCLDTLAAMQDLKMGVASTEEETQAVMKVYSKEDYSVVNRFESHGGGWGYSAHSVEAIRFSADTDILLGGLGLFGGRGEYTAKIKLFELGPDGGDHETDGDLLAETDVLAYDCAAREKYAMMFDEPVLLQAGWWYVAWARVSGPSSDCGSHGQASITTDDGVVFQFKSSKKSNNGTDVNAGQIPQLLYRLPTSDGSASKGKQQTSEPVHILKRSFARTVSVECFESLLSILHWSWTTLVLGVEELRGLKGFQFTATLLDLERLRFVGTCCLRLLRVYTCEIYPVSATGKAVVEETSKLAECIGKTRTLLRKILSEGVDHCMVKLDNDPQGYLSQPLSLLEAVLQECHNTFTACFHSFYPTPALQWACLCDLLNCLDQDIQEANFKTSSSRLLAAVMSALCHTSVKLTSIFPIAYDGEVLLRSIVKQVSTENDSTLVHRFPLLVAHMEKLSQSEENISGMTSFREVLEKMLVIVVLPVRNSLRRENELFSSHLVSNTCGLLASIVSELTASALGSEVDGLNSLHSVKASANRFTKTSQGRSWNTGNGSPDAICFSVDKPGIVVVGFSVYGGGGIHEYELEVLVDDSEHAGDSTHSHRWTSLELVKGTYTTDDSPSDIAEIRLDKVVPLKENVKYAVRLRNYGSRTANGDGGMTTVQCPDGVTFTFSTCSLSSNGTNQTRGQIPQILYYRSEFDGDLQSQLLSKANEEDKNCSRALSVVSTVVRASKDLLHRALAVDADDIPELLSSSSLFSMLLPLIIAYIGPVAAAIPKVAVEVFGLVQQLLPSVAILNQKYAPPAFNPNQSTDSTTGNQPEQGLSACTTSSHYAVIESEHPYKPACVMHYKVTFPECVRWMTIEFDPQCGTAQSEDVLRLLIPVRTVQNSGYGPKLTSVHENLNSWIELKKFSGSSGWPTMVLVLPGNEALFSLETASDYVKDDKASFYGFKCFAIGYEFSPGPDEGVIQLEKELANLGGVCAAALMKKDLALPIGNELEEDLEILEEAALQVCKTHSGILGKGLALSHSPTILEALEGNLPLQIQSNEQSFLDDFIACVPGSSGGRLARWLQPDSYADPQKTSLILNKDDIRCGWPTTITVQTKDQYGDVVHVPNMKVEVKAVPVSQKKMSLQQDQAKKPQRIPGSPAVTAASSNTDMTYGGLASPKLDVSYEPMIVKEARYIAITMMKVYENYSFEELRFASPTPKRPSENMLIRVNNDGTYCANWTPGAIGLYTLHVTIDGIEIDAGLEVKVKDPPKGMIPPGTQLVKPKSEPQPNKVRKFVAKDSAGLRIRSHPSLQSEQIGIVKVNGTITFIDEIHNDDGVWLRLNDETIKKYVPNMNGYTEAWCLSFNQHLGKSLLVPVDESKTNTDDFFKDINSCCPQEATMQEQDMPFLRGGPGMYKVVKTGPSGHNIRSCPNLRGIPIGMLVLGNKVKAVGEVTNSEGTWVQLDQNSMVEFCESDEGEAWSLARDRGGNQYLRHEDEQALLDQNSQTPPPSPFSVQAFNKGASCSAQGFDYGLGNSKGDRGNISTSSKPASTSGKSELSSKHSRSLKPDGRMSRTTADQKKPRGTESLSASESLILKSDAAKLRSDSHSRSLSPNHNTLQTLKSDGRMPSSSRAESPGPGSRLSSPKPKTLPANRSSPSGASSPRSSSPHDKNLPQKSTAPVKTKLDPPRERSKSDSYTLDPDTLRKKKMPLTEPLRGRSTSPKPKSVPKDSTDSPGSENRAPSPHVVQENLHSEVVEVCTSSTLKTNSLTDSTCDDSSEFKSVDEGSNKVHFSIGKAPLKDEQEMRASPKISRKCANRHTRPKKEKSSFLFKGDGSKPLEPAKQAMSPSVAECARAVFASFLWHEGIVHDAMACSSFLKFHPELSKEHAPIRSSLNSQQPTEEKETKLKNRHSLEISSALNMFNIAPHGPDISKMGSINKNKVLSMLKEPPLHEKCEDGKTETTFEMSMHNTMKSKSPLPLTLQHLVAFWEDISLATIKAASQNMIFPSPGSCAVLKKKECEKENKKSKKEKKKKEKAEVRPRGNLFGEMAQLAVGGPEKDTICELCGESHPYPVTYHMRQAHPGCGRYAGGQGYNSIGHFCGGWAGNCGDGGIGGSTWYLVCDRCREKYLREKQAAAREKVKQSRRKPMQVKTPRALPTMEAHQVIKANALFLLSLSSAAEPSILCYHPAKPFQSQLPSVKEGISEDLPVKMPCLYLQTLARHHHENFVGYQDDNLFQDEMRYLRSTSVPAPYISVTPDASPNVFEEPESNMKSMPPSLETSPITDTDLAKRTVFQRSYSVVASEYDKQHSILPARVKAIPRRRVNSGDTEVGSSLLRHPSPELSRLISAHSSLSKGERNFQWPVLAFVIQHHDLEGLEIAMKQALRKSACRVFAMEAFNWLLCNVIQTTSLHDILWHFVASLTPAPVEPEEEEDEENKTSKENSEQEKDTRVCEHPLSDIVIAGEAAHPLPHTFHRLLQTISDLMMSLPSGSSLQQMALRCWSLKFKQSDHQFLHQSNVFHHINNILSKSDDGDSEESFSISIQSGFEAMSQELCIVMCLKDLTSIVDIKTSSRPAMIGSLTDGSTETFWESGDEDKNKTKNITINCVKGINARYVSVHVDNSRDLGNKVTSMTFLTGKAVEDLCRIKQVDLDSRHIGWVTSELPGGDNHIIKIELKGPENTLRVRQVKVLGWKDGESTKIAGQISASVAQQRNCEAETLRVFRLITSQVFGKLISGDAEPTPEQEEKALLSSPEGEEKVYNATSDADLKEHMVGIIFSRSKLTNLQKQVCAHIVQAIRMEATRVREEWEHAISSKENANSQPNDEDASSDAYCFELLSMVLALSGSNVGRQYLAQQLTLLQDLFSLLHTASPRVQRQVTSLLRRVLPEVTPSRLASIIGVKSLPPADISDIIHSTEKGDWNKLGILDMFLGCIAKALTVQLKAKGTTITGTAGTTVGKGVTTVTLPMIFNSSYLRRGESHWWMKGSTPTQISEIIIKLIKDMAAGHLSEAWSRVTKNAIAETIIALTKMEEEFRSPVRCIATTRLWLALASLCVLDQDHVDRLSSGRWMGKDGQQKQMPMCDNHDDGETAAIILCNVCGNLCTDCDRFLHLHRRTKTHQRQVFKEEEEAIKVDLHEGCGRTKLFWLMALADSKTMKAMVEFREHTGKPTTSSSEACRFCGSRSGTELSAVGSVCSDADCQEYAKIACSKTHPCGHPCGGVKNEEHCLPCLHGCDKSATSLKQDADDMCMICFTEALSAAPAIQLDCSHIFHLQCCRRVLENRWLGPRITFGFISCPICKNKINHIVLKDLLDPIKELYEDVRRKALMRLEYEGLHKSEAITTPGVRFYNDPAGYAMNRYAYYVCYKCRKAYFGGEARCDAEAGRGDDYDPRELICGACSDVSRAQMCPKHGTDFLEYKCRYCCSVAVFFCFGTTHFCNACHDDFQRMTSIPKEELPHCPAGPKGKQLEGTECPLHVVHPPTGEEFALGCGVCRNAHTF
UniProt P53602: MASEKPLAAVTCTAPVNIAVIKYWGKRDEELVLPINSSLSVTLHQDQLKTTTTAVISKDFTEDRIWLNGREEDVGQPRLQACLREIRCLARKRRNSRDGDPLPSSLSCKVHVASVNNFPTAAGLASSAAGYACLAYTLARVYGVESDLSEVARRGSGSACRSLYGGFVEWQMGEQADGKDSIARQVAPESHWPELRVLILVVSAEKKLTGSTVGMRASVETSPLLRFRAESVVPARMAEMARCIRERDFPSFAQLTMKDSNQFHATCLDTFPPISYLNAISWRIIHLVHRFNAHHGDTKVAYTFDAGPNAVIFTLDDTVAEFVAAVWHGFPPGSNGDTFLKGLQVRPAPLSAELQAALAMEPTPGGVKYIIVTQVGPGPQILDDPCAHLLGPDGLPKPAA
UniProt Q969V5: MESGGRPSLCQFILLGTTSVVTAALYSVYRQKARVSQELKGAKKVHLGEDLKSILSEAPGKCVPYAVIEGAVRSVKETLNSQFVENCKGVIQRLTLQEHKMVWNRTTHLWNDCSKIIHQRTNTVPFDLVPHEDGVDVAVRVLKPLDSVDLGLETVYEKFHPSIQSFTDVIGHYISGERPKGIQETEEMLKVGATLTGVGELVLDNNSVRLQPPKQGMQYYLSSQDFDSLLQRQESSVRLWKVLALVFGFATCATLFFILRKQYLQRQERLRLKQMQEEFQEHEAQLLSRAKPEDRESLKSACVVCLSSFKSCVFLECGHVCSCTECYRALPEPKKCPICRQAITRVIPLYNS

These targets were tested with Cc1cc(ccc1-c1ccccc1)C(=O)N1CCCN(CC1)C(=O)CCl [compound 10] (assay: probe-labelled cysteine peptide fold change vs DMSO (competition) (log2 fold change); higher = less target engagement (more negative = stronger competition)). Conditions: 10 µM; THP-1; incubation time: 4 h.
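Also: competitive profiling in live THP-1 cells: cysteine peptides tagged with an iodoacetamide desthiobiotin (IA-DTB) probe, intensity after compound treatment relative to DMSO-treated cells.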

Row | Target | probe-labelled cysteine peptide fold change
1 | MTREX_P42285_399_DCEAYALQMTK (UniProt P42285) | -0.242
2 | MYCBP2_O75592_222_FSHPSLCLR (UniProt O75592) | -0.0571
3 | MYL9_P24844_109_NAFACFDEEASGFIHEDHLR (UniProt P24844) | 0.115
4 | MYCBP2_O75592_3786_NITINCVK (UniProt O75592) | -0.699
5 | MSH6_P52701_783_QWLCAPLCNHYAINDRLDAIEDLMVVPDK (UniProt P52701) | -0.0798
6 | MVD_P53602_12_PLAAVTCTAPVNIAVIK (UniProt P53602) | -0.196
7 | MTRR_Q9UBK8_64_AIAEEICEQAVVHGFSADLHCISESDKYDLK (UniProt Q9UBK8) | -0.113
8 | MYCBP2_O75592_1198_SHAALHILGCLDTLAAMQDLK (UniProt O75592) | 0.12
9 | MVP_Q14764_59_HYCTVANPVSR (UniProt Q14764) | -0.0627
10 | MTFR2_Q6P444_50_MLPLEPCR (UniProt Q6P444) | -0.0626
11 | MYBBP1A_Q9BQG0_363_FAPEMDDYVGTFLEGCQDDPER (UniProt Q9BQG0) | -0.153
12 | MTHFD1L_Q6UB35_828_AGAFDAVPCYHWSVGGK (UniProt Q6UB35) | 0.136
13 | MTM1_Q13496_242_CSQPLVGMSGKR (UniProt Q13496) | -0.443
14 | MUL1_Q969V5_62_CVPYAVIEGAVR (UniProt Q969V5) | -0.177
15 | MSH2_P43246_199_ECVLPGGETAGDMGK (UniProt P43246) | -0.0196
16 | MSL3_Q8N5Y2_358_HSANCDR (UniProt Q8N5Y2) | -0.00163

Nothing new here: an excerpt of the list.
Row | Target | probe-labelled cysteine peptide fold change
6 | MVD_P53602_12_PLAAVTCTAPVNIAVIK (UniProt P53602) | -0.196
7 | MTRR_Q9UBK8_64_AIAEEICEQAVVHGFSADLHCISESDKYDLK (UniProt Q9UBK8) | -0.113
